Assay results as given in PubChem BioAssay AID1347075 (National Center for Advancing Translational Sciences (NCATS), 2019).
The whole screen tested about 400,000 compounds, of which about 5,500 (1.4%) were called active. Inconclusive means that the source gave no clear call. Such entries were picked first, then a sample of the others. Calls follow the shape of the dose curve; as a rule, active = well fitted cell-killing curve with a large enough effect; inconclusive = small, poorly fitted or top-dose-only effect, or effect the other way; inactive = flat fitted curve, though single readings scatter. Potencies beside an inconclusive call are fits to weak or partial responses and may not hold up.
Potency is read from the fitted curve at half-maximal effect.

Experiment: qHTS assay for MDR1-selective chemotherapeutics: Primary screen using the parental adenocarcinoma cell KB-3-1; also: nearly all actives have a fitted effect of over 60% in size
Details: KB-3-1 viability, CellTiter-Glo ATP luminescence, 72 h; series mostly up to 46.1 µM
Method in brief: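 Parental KB-3-1 viability, qHTS format: 72 h compound exposure, 37 °C; CellTiter-Glo; media-only wells and DMSO plates as controls; concentration-effect fits on corrected data.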
In the case of `COc1ccc(NS(=O)(=O)c2ccc(C)c(C(=O)N3CC(C)OC(C)C3)c2)cc1` (stereo not given), the Potency is reported as inconclusive: 0.0082 µM [cytotoxic, full curve, poor fit].
With `CCOc1ccc(OCc2ccc(C(=O)N3CCOCC3)cc2)cc1` the Potency was inconclusive: 12.6 µM [cytotoxic, partial curve, poor fit].
In the case of `O=C(CN1CCN(S(=O)(=O)c2ccc3ccccc3c2)CC1)NC(=O)NC1CCCCC1`, the Potency is reported as inconclusive: 20.6 µM [cytotoxic, single point].
In the case of `COc1cc(OC)c(NC(=O)CN(C)S(=O)(=O)c2ccc(-c3ccc(=O)[nH]n3)s2)cc1Cl`, the Potency is reported as “inactive”.
For `Cc1ccc(C(=O)OCn2ncc(Cl)c(Cl)c2=O)cc1`, the Potency was active: 4.61 µM.
With `COc1ccc2c(c1)CCCN2S(=O)(=O)c1ccc(Cl)cc1` the Potency was inconclusive: 29.1 µM [cytotoxic, single point].
For `CN(C)S(=O)(=O)c1ccc(N2CCCC2)c(C(=O)Nc2nc3ccc(F)cc3s2)c1`, the Potency was inconclusive: 29.1 µM [cytotoxic, single point].
For `Cc1ccc(C)c(NS(=O)(=O)c2ccccc2C)c1`, the Potency was “inactive”.
In the case of `CC1CN(C(=O)CCc2cc(C(C)(C)C)c(O)c(C(C)(C)C)c2)CC(C)O1` (stereo not given), the Potency is reported as “inactive”.
In the case of `Cc1cc(NC(=O)c2cccc(F)c2)ncc1NC(=O)c1ccco1`, the Potency is reported as inconclusive: 10.3 µM [cytotoxic, partial curve].
With `COC(=O)c1cccc(NC(=O)c2ccc3c(c2)C(=O)N(C(C)(C)C)C3=O)c1` the Potency was “inactive”.
With `Oc1cc2c(c(Cl)c1O)CCNCC2c1ccccc1` (stereo not given) the Potency was inconclusive: 29.1 µM [cytotoxic, single point].
In the case of `Cc1ccc(NS(=O)(=O)c2cc(C(=O)Nc3cccc(N(C)S(C)(=O)=O)c3)ccc2C)c(C)c1`, the Potency is reported as “inactive”.
In the case of `CCCCCCn1c(-c2cccs2)n[nH]c1=S`, the Potency is reported as inconclusive: 0.0731 µM [cytotoxic, full curve].
In the case of `O=C(Nc1ccc(F)cc1)OCCN1CCN(Cc2ccccc2)CCC1=O`, the Potency is reported as inconclusive: 29.1 µM [cytotoxic, single point].
For `CC(C)N1CCC2(CC1)N=C(c1ccc3c(c1)OCO3)CC(c1cc(Cl)ccc1O)N2` (stereo not given), the Potency was active: 14.6 µM.
For `COc1cc(/C=N/NC(=O)C(=O)NCc2cccnc2)ccc1O`, the Potency was inconclusive: 29.1 µM [cytotoxic, single point].
With `O=S(=O)(c1cccc(-c2nc3ccccc3s2)c1)N1CCCC1` the Potency was inconclusive: 20.6 µM [cytotoxic, single point].
For `COc1ccc(-c2cc(CNC(=O)CCl)on2)cc1`, the Potency was inconclusive: 3.66 µM [cytotoxic, full curve, poor fit].
In the case of `Cc1cc(C)c2nc(NNC(=O)c3ccc(S(=O)(=O)N4CCc5ccccc5C4)cc3)sc2c1`, the Potency is reported as inconclusive: 3.66 µM [cytotoxic, full curve, poor fit].
For `CN(CC(=O)Nc1ccc(F)cc1)C(=O)c1cc(-c2ccco2)nc2ccccc12`, the Potency was “inactive”.
With `Cn1nc(-c2ccc(C(=O)Nc3ccc(OC(F)(F)F)cc3)cc2)c2ccccc2c1=O` the Potency was inconclusive: 18.4 µM [cytotoxic, single point].
In the case of `OC(CNc1ccccc1)COc1ccc(OCC(O)CNc2ccccc2)cc1` (stereo not given), the Potency is reported as inconclusive: 25.9 µM [cytotoxic, single point].
In the case of `CCC(C)(C)NC(=S)Nc1ccc(-c2nc3ccc(C)cc3s2)cc1`, the Potency is reported as “inactive”.
For `Cc1ccccc1NC(=O)CCCCCN1C(=O)[C@@H]2Cc3ccccc3CN2C1=O`, the Potency was inconclusive: 14.6 µM [cytotoxic, partial curve, poor fit].
For `Nc1nc(N)c2cc(CNc3ccc(Cl)c(Cl)c3)ccc2n1`, the Potency was inconclusive: 13 µM [cytotoxic, partial curve, poor fit].
With `COc1ccc(N2CCN(C(=O)CCNC(=O)c3ccc(C(C)(C)C)cc3)CC2)cc1` the Potency was “inactive”.
With `COc1cccc(NC(=O)c2cn(C)c(=O)c3cc(OC)c(OC)cc23)c1` the Potency was inconclusive: 0.92 µM [rising, full curve].
In the case of `O=c1cc(CN2CCN(C/C=C/c3ccccc3)CC2)c2cc(O)ccc2o1`, the Potency is reported as inconclusive: 29.1 µM [cytotoxic, single point].
In the case of `O=C(NCc1ccccc1Cl)C(=O)NCC(c1cccs1)S(=O)(=O)c1ccccc1` (stereo not given), the Potency is reported as “inactive”.
For `CC(C)N1CCN(C(=O)c2ccc(OC3CCN(CCc4ccccc4)CC3)cc2)CC1`, the Potency was inconclusive: 23.1 µM [rising, single point].
For `CCN(CC)S(=O)(=O)c1ccc(/C=C/C(=O)Nc2ccc(F)cc2F)cc1`, the Potency was inconclusive: 25.9 µM [cytotoxic, partial curve, poor fit].
With `C=CCN1c2ccc(Br)cc2C(=O)CS1(=O)=O` the Potency was inconclusive: 11.6 µM [cytotoxic, partial curve, poor fit].
For `CC(NC(=O)c1cccc2ccccc12)c1ccc2c(c1)CCCC2` (stereo not given), the Potency was active: 10.3 µM.
With `CCOc1ccc(-n2c(C)c3c(C)nnc(C)c3c2C)cc1` the Potency was inconclusive: 23.1 µM [cytotoxic, single point].
For `CCC1SC(=Nc2cccc(C)c2)NC1=O` (stereo not given), the Potency was inconclusive: 2.31 µM [rising, full curve].
For `COc1cc2c3nnc(-c4ccc(F)cc4)c-3cn(Cc3cccc(F)c3)c2cc1OC`, the Potency was inconclusive: 2.91 µM [cytotoxic, partial curve, poor fit].
With `COc1ccc(-c2cc(C)no2)cc1S(=O)(=O)N(C)c1ccc(C)c(C)c1` the Potency was “inactive”.
In the case of `CC(=O)Nc1ccc2nc(NC(=O)COc3ccc(C)cc3)sc2c1`, the Potency is reported as inconclusive: 29.1 µM [rising, single point].
For `CCN(CC(=O)Nc1ccccc1C(F)(F)F)C(=O)c1oc2c(Cl)cccc2c1C`, the Potency was “inactive”.
For `Cc1c(Cl)cccc1NC(=S)NCCc1ccc(Cl)cc1`, the Potency was inconclusive: 25.9 µM [cytotoxic, partial curve, poor fit].
For `Clc1ccc2nc(-c3ccccc3)c(Cc3ccccc3)n2c1`, the Potency was inconclusive: 16.4 µM [cytotoxic, single point].
In the case of `Cc1cc(Br)ccc1NC(=O)c1coc(=O)c2ccccc12`, the Potency is reported as “inactive”.
For `CCOC(=O)c1ccc(NC(=O)C2CC(=O)Nc3nc4ccccc4n32)cc1` (stereo not given), the Potency was inconclusive: 29.1 µM [rising, single point].
In the case of `CCn1c(=O)c2sccc2n2c(CCC(=O)N3CCN(c4ccccc4OC)CC3)nnc12`, the Potency is reported as “inactive”.
In the case of `COc1ccc(CN2CCN(C(=O)c3ccco3)CC2)cc1OCc1ccccc1`, the Potency is reported as inconclusive: 25.9 µM [cytotoxic, partial curve, poor fit].
With `COc1ccc(C2C3C(=O)N(N(C)c4ncc(C(F)(F)F)cc4Cl)C(=O)C3ON2C)cc1` (stereo not given) the Potency was inconclusive: 29.1 µM [rising, single point].
In the case of `CCCOc1ccc(C(=O)NCC(c2ccc(OC)cc2)N2CCCCC2)cc1` (stereo not given), the Potency is reported as “inactive”.
For `O=C1/C(=C/c2cccs2)SC(=S)N1CCCC(=O)N(CCO)c1ccccc1`, the Potency was inconclusive: 25.9 µM [cytotoxic, single point].
With `O=C(c1cccc(Cl)c1)N(Cc1ccco1)C1CCS(=O)(=O)C1` (stereo not given) the Potency was “inactive”.
For `CC(=O)C1=CCC(c2ccccc2)N(Cc2ccccc2)C1` (stereo not given), the Potency was inconclusive: 18.4 µM [cytotoxic, single point].
With `O=C1C2C3C=CC(C3)C2C(=O)N1/N=C/c1cn(Cc2ccc(F)cc2)c2ccccc12` (stereo not given) the Potency was inconclusive: 5.8 µM [cytotoxic, partial curve].
With `Cc1ccc(Nc2nc(NCc3ccccc3)nc3ccsc23)c(C)c1` the Potency was inconclusive: 29.1 µM [cytotoxic, single point].
In the case of `O=S(=O)(c1ccccc1)c1nc(-c2cccs2)oc1N1CCCCC1`, the Potency is reported as “inactive”.
For `C=CCn1c(SCC(=O)NNC(=S)Nc2ccccc2)nnc1-c1ccccc1`, the Potency was “inactive”.
With `Cc1cc(Nc2cccc(F)c2)nc(-c2ccccc2O)n1` the Potency was “inactive”.
In the case of `O=C(CC1CCCCC1)c1c(O)c2ccccc2oc1=O`, the Potency is reported as active: 5.8 µM.
For `O=C1Nc2ccccc2-n2nnnc2C1N1CCN(C(=O)c2ccco2)CC1` (stereo not given), the Potency was “inactive”.
For `COc1ccc([N+](=O)[O-])cc1NC(=O)c1ccc(-n2nc(C)cc2C)cc1`, the Potency was “inactive”.
In the case of `CCCCCN1CC(O)=C(c2nc3ccccc3[nH]2)C1=N`, the Potency is reported as inconclusive: 29.1 µM [rising, single point].
In the case of `CCOC(=O)c1c(NC(=O)CSc2nncs2)sc(C)c1-c1ccccc1`, the Potency is reported as inconclusive: 14.6 µM [cytotoxic, partial curve].
For `Cc1cccc(-n2c(=O)c3c(c4cc(C)ccc4n3C)n(CC(=O)Nc3ccccc3Cl)c2=O)c1`, the Potency was “inactive”.
In the case of `CCOC(=O)c1sc(NC(=O)CN(CC(C)C)CC(C)C)c(C(=O)OCC)c1C`, the Potency is reported as inconclusive: 23.1 µM [cytotoxic, single point].
For `O=C(CSC1=NS(=O)(=O)c2ccccc21)Nc1ccccc1`, the Potency was active: 14.6 µM.
With `O=C(Nc1cc2c3c(c1)CC(=O)N3CCC2)c1ccccc1C(F)(F)F` the Potency was inconclusive: 29.1 µM [rising, single point].
With `COCCNC(=O)c1ccc2c(c1)N(Cc1ccc(C(F)(F)F)cc1)C(=O)c1ccccc1S2` the Potency was inconclusive: 32.6 µM [cytotoxic, single point].
In the case of `CC(C)n1nnnc1SCC(=O)Nc1ccccc1F`, the Potency is reported as inconclusive: 25.9 µM [rising, single point].
With `O=C(c1ccccc1F)N1CCN(S(=O)(=O)c2ccc3ccccc3c2)CC1` the Potency was inconclusive: 4.61 µM [cytotoxic, full curve, poor fit].
With `COc1ccc(N2CCN(C(=O)c3cn(C)c4ccc(S(=O)(=O)N(C)C5CCCCC5)cc4c3=O)CC2)cc1` the Potency was “inactive”.
For `COc1ccccc1N1CCN(C(=O)c2c(-c3c(F)cccc3Cl)noc2C)CC1`, the Potency was inconclusive: 29.1 µM [cytotoxic, single point].
